Data: article PMC6738421
No constants are given. Whether binding was seen depends on the method and setting.

Amino acid sequences for entries named in this document (tags omitted). A change or cut given only in a name is not applied to a line headed by its entry. Chains listed by the source or under a name are the forms on record and can include a tag or linker.
Arginyl-tRNA-protein transferase Ate1, isoform Ate1-3 (Q9Z2A5-3, form named): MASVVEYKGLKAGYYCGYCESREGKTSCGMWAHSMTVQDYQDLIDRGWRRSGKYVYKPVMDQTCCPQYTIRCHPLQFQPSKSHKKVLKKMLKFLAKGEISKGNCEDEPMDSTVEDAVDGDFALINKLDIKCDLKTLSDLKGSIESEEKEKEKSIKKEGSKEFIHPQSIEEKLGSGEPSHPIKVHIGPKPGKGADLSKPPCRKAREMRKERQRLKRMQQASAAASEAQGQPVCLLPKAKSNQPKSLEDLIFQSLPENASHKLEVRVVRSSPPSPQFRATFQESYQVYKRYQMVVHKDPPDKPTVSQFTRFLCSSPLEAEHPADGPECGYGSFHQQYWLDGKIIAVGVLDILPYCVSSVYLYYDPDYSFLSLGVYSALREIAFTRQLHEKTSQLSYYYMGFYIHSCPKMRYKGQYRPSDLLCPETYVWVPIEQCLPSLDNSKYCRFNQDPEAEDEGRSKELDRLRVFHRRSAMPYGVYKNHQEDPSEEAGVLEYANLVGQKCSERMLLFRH

Key:
[1] = target: Beta-amyloid peptide Aβ42; assay: ELISA; as a3 (anti-Aβ36-42 capture, anti-Aβ1-17 detection) but Ate1 added together with tRNA (Arg-tRNA in the methods); both purified
[2] = target: Beta-amyloid peptide Aβ42; assay: ELISA; as a1 (anti-Aβ1-17 capture, anti-Aβ36-42 detection) but Ate1 added together with tRNA (Arg-tRNA in the methods); both purified

| Substance | binding [1] | binding [2] |
| --- | --- | --- |
| Arginyl-tRNA-protein transferase Ate1, isoform Ate1-3 (from UniProt Q9Z2A5-3 1-509) (enzyme) | no binding (condition: with tRNA) | – |
| Arginyl-tRNA-protein transferase Ate1, isoform Ate1-1 (from UniProt Q9Z2A5-1 1-516) (enzyme) | no binding (condition: with tRNA) | no binding (condition: with tRNA) |
